Measurements reported in paper PMC5011342, “A high throughput drug screening assay to identify compounds that promote oligodendrocyte differentiation using acutely dissociated and purified oligodendrocyte precursor cells” (BMC Research Notes, 2016).

Test system: expanded OPCs
Assay: cells
Details: Rattus norvegicus, 72 h
Description: Having established a consistent assay for measuring OL differentiation in vitro, the next step was to utilize this assay to assess the ability of a wide array of compounds to promote OL differentiation. Prior to library screening, we first established the maximum non-toxic dose of each compound in the library. […] Therefore, we added each compound in the NIH clinical collection (NCC) library to OPCs at 10, 1, and 0.1 µM concentrations. Three days later, we assessed viability of the treated cells by measuring AlamarBlue fluorescence, a measure of cell viability (see “Methods” section). […] Appropriately, we established three sets of screening concentrations for library compounds: non-toxic compounds were tested at 10 and 2 µM, slightly toxic compounds (only toxic at 10 µM) were tested at 2 and 0.4 µM, and very toxic compounds were tested at 0.4 and 0.08 µM.
OPCs were expanded in vitro by seeding into PDL-coated tissue culture flasks at 1000–2000 cells/cm^2 in differentiation media supplemented with 10 ng/ml PDGF-AA. Proliferating OPCs were fed every 2–3 days and supplemented with 2–3× concentration of PDGF as needed to prevent OPC differentiation. After 6–7 days of proliferation, OPCs were harvested by trypsinization, plated into PDL-coated 96-well Falcon plates and centrifuged at 200×g to facilitate cell attachment, survival, and even distribution of cells. Expanded OPCs were seeded in differentiation media at 10,000 cells/well and incubated for 2 h at 37 °C, 10 % CO2 prior to addition of compounds. The NCC library was diluted and added to cells at 10, 1, and 0.1 µM; each concentration was tested in quadruplicate. As a positive control for the induction of toxicity, 5 ng/ml tunicamycin was added to 8 wells in each plate. Three days later, a 1:10 dilution of alamarBlue® (AB) was added to each well and cells were incubated 4 h at 37 °C, 10 % CO2. AB fluorescence was measured using a PerkinElmer Victor II fluorescence microplate reader (PerkinElmer, Waltham, MA) with 560 nm excitation/590 nm emission filters. […]

COc1ccc(CC(C)NCC(O)c2ccc(O)c(NC=O)c2)cc1 (stereo not drawn) [Formoterol]
viability at 0.1 µM (read-out: 0.1 µM (% DMSO)): 99.3%
viability at 1 µM (read-out: 1 µM (% DMSO)): 98%
viability at 10 µM (read-out: 10 µM (% DMSO)): 92.5%
